This experiment concerns B6C3F1 mice, intracerebral ependymoblastoma, median survival T/C. Put plainly: NCI In Vivo Anticancer Drug Screen. Data for tumor model Ependymoblastoma (intracerebral) in B6C3F1 mice. Particulars: T/C endpoint: median survival time, higher T/C = longer survival. Here is the method: The antitumor activity of compounds was measured in mice bearing transplantable tumors. Survival or tumor size were measured and the results are expressed as the measurement made in the treated group (T) divided by the measurement made in the vehicle treated control group (C). The tumor model used in this assay is Ependymoblastoma (intracerebral) in B6C3F1 mice

Where [1] appears, read: dose: 16.0 mg/kg/injection, schedule: Q01DX005 (ip), vehicle: Klucel (hydroxypropylcellulose) (HPC).
The mark [2] stands for this setting: dose: 0.25 mg/kg/injection, schedule: Q01DX005 (ip), vehicle: saline.
[3] abbreviates: dose: 0.5 mg/kg/injection, schedule: Q01DX005 (ip), vehicle: saline.
The mark [4] stands for this setting: dose: 96.0 mg/kg/injection, schedule: Q01DX001 (ip), vehicle: saline.

Molecules are shown by their SMILES. The list shows only some results of the screen, not a fair sample: it gathers tests that were run many times, whatever their T/C, doses with no T/C, and many T/C values between a quarter and a half above the control. Further doses and runs are listed elsewhere. T/C: endpoint of the treated group in % of that of the vehicle group. Some entries give survivors of the animals treated and no T/C: the source holds a T/C of zero for them, seemingly a mark for toxic or unscored doses. Some survivor counts are full or nearly so, which does not show that the dose was tolerated: the source hardly ever lists a survival T/C far under the control, and the zero likely stands for such cases as well. Counts of survivors are from the toxicity check (mostly the fifth day) where no day follows; animals may have died later. Schedules are NCI's codes, read here as Q, the interval in days (D) or hours (H), X, the number of doses. Some entries were tested several times; the results are listed from low to high. Marks such as (2×) say how often a value occurs here. Where survival is the endpoint, the PubChem record calls one and a half times the control and up active, and a quarter to a half above the control has no call in these data; cut-offs in other NCI protocols can differ. Some T/C values are followed by the survivors on the day toxicity was checked, most often the fifth; without a count, all were alive then.

With `CC(=O)NNC(=O)c1ccccn1`, the T/C by setting is: (dose: 100.0 mg/kg/injection, schedule: Q01DX001 (ip), vehicle: Klucel (hydroxypropylcellulose) (HPC)) 100, 101 [survivors not given] (2×), 106 % of control [survivors not given]; (dose: 200.0 mg/kg/injection, schedule: Q01DX001 (ip), vehicle: Klucel (hydroxypropylcellulose) (HPC)) 91 [survivors not given], 99, 104 [survivors not given], 115 % of control [survivors not given]; (dose: 400.0 mg/kg/injection, schedule: Q01DX001 (ip), vehicle: Klucel (hydroxypropylcellulose) (HPC)) 92 [8 of 10 alive], 100 [survivors not given], 101 % of control [survivors not given]. For the same compound, the survivor count is, setting by setting: (dose: 800.0 mg/kg/injection, schedule: Q01DX001 (ip), vehicle: Klucel (hydroxypropylcellulose) (HPC)) 0 of 10; (dose: 800.0 mg/kg/injection, schedule: Q01DX005 (ip), vehicle: Klucel (hydroxypropylcellulose) (HPC)) 0 of 10 and 1 of 10.

On to `COc1ccc(C[C@H](N)C(=O)NC2C(CO)OC(n3cnc4c(N(C)C)ncnc43)C2O)cc1` (stereo partly specified), for which the survivor count (dose: 256.0 mg/kg/injection, schedule: Q01DX005 (ip), vehicle: saline) is given as 2 of 10.

Turning to `CC1CCC(NC(=O)N(CCCl)N=O)CC1` (stereo unspecified), the T/C is, setting by setting: (dose: 0.5 mg/kg/injection, schedule: Q01DX005 (ip), vehicle: Klucel (hydroxypropylcellulose) (HPC)) 96, 100 [9 of 10 alive], 107, 108 [9 of 10 alive], 109, 111, 114 % of control; (dose: 1.0 mg/kg/injection, schedule: Q01DX005 (ip), vehicle: Klucel (hydroxypropylcellulose) (HPC)) 93, 102, 108, 110, 111, 113, 115 % of control; (dose: 2.0 mg/kg/injection, schedule: Q01DX005 (ip), vehicle: Klucel (hydroxypropylcellulose) (HPC)) 100, 110, 121 (2×), 123, 127, 133 % of control; (dose: 4.0 mg/kg/injection, schedule: Q01DX005 (ip), vehicle: Klucel (hydroxypropylcellulose) (HPC)) 116 [9 of 10 alive], 117, 120, 129, 132, 137, 152 % of control; (dose: 4.0 mg/kg/injection, schedule: Q01DX009 (ip), vehicle: Klucel (hydroxypropylcellulose) (HPC)) 144 % of control; (dose: 6.0 mg/kg/injection, schedule: Q01DX005 (ip), vehicle: saline) 129 % of control. Also, the T/C runs as follows: (dose: 8.0 mg/kg/injection, schedule: Q01DX005 (ip), vehicle: Klucel (hydroxypropylcellulose) (HPC)) 119, 136, 138, 151, 155 [9 of 10 alive], 157, 211 % of control; (dose: 8.0 mg/kg/injection, schedule: Q01DX005 (ip), vehicle: saline) 127 % of control; (dose: 8.0 mg/kg/injection, schedule: Q01DX009 (ip), vehicle: Klucel (hydroxypropylcellulose) (HPC)) 133 % of control; (dose: 12.5 mg/kg/injection, schedule: Q01DX001 (ip), vehicle: saline + alcohol) 138 % of control; under setting [1], 92, 109 [9 of 10 alive], 127, 128 [9 of 10 alive], 164, 193 % of control; (dose: 32.0 mg/kg/injection, schedule: Q01DX001 (ip), vehicle: other) 144 % of control. Also, the survivor count under setting [1] was 10 of 10; the survivor count (dose: 16.0 mg/kg/injection, schedule: Q01DX009 (ip), vehicle: Klucel (hydroxypropylcellulose) (HPC)) is on record as 8 of 10; the survivor count (dose: 100.0 mg/kg/injection, schedule: Q01DX001 (ip), vehicle: saline + alcohol) is recorded as 5 of 10; the survivor count (dose: 200.0 mg/kg/injection, schedule: Q01DX001 (ip), vehicle: saline + alcohol) is recorded as 1 of 10; the survivor count (dose: 256.0 mg/kg/injection, schedule: Q01DX001 (ip), vehicle: other) is reported as 4 of 10.

Regarding `[N-]=[N+]=CC(=O)CCC(N)C(=O)O` (stereo unspecified), the T/C was 94, 98 [7 of 10 alive], 122 % of control under setting [2]; 89 and 111 % of control under setting [3]. Besides, the survivor count is, setting by setting: under setting [2], 8 of 10; (dose: 0.4 mg/kg/injection, schedule: Q01DX005 (ip), vehicle: saline) 10 of 10; under setting [3], 6 of 10 and 8 of 10; (dose: 0.8 mg/kg/injection, schedule: Q01DX005 (ip), vehicle: saline) 10 of 10; (dose: 1.0 mg/kg/injection, schedule: Q01DX005 (ip), vehicle: saline) 5 of 10, 9 of 10, 10 of 10 (2×); (dose: 2.0 mg/kg/injection, schedule: Q01DX005 (ip), vehicle: saline) 6 of 10 and 9 of 10. For the same compound, under “dose: 4.0 mg/kg/injection, schedule: Q01DX005 (ip), vehicle: saline”, the survivor count was 1 of 10 and 5 of 10.

Consider `c1ccc([C@H]2CN3CCSC3=N2)cc1`, for which the T/C runs as follows: (dose: 20.0 mg/kg/injection, schedule: Q01DX001 (ip), vehicle: saline) 92 [survivors not given], 96 [survivors not given], 99, 102 % of control [survivors not given]; (dose: 40.0 mg/kg/injection, schedule: Q01DX001 (ip), vehicle: saline) 96 [survivors not given], 98 [survivors not given], 107, 110 % of control [survivors not given]; (dose: 80.0 mg/kg/injection, schedule: Q01DX001 (ip), vehicle: saline) 98 [5 of 10 alive on day 9] and 108 % of control [survivors not given]. In addition, the survivor count runs as follows: (dose: 80.0 mg/kg/injection, schedule: Q01DX005 (ip), vehicle: saline) 0 of 10; (dose: 160.0 mg/kg/injection, schedule: Q01DX001 (ip), vehicle: saline) 0 of 10 on day 9.

In the case of `NCCOCC(N)C(=O)O` (stereo unspecified), the survivor count (dose: 1000.0 mg/kg/injection, schedule: Q01DX005 (ip), vehicle: saline) is given as 2 of 10.

Regarding `O=NN(CCF)C(=O)NC1C(O)CCCC1O` (stereo unspecified), the T/C (dose: 21.6 mg/kg/injection, schedule: Q01DX001 (ip), vehicle: saline) is 141 % of control. For the same compound, for the setting “dose: 40.0 mg/kg/injection, schedule: Q01DX005 (ip), vehicle: Klucel (hydroxypropylcellulose) (HPC)”, the survivor count is reported as 8 of 10 on day 6.

As to `Cn1cnc([N+](=O)[O-])c1Sc1nc(N)nc2c1ncn2C1OC(CO)C(O)C1O` (stereo unspecified), the survivor count (dose: 50.0 mg/kg/injection, schedule: Q01DX005 (ip), vehicle: suspension in saline) is on record as 10 of 10.

On to `CC[n+]1c(-c2ccccc2)c2cc(N)ccc2c2ccc(N)cc21`, for which the T/C runs as follows: (dose: 24.0 mg/kg/injection, schedule: Q01DX001 (ip), vehicle: saline) 92 [survivors not given], 105 [survivors not given], 107, 110 % of control [survivors not given]; (dose: 48.0 mg/kg/injection, schedule: Q01DX001 (ip), vehicle: saline) 95 [survivors not given], 100 [9 of 10 alive], 101 [survivors not given], 110 % of control [survivors not given]; under setting [4], 98 % of control [survivors not given]. Moreover, the survivor count is on record as 8 of 10 under setting [4] and 0 of 10 (dose: 192.0 mg/kg/injection, schedule: Q01DX001 (ip), vehicle: saline).

These data come from PubChem BioAssay AID226 (DTP/NCI, 2004).
